No constants are given. Whether binding was seen depends on the method and setting.

Data on two molecules can be found in PMC5524640, “Evasion of immunosurveillance by genomic alterations of PPARγ/RXRα in bladder cancer” (Nature Communications, 2017).

Test [1] has as its target T1, His-TEV-RXRα-S427F (223-462) (Homo sapiens (Human), UniProt P19793).
T1 chain: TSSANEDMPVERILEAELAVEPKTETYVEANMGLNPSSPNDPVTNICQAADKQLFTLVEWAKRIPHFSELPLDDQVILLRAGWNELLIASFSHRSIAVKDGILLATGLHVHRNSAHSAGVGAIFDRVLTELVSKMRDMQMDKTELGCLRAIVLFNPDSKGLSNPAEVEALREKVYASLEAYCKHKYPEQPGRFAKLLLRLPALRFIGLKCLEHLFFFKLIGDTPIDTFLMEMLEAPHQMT
The experiment in a line: SEC; analytical, 10/300 Superdex 200; equivalent molar volumes loaded; heterodimer formed by mixing the two proteins at a 1:1 molar ratio; no ligand; both purified. (In general: In gel filtration, larger molecules generally elute earlier.)

Test [2] deals with T2, His-TEV-RXRα-WT (223-462) (Homo sapiens (Human), UniProt P19793).
T2 chain: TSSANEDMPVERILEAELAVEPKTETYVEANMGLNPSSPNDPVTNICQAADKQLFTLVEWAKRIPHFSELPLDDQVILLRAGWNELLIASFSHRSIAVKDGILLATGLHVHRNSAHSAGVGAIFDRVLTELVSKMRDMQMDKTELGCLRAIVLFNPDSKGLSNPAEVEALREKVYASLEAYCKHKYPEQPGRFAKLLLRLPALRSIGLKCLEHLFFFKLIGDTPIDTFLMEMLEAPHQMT
The experiment in a line: SEC; RXRα^WT with addition of 9-cis-retinoic acid (Supplementary Fig. 7b); both purified.

B1: His-TEV-RXRα-S427F (223-462) (domain or fragment, human, UniProt P19793 223-462, looked up)
chain: TSSANEDMPVERILEAELAVEPKTETYVEANMGLNPSSPNDPVTNICQAADKQLFTLVEWAKRIPHFSELPLDDQVILLRAGWNELLIASFSHRSIAVKDGILLATGLHVHRNSAHSAGVGAIFDRVLTELVSKMRDMQMDKTELGCLRAIVLFNPDSKGLSNPAEVEALREKVYASLEAYCKHKYPEQPGRFAKLLLRLPALRFIGLKCLEHLFFFKLIGDTPIDTFLMEMLEAPHQMT
notes: S427F is a recurrent mutation found in patients' tumours; No tag cleavage is described for this preparation; also called the mutant; source: E. coli, purified (Ni-NTA, size exclusion chromatography)
Take B1: the binding entry in test [1] was “no binding”.

B2: His-TEV-RXRα-WT (223-462) (domain or fragment, human, UniProt P19793 223-462, looked up)
chain: TSSANEDMPVERILEAELAVEPKTETYVEANMGLNPSSPNDPVTNICQAADKQLFTLVEWAKRIPHFSELPLDDQVILLRAGWNELLIASFSHRSIAVKDGILLATGLHVHRNSAHSAGVGAIFDRVLTELVSKMRDMQMDKTELGCLRAIVLFNPDSKGLSNPAEVEALREKVYASLEAYCKHKYPEQPGRFAKLLLRLPALRSIGLKCLEHLFFFKLIGDTPIDTFLMEMLEAPHQMT
Consider B2, for which, in test [2], the binding entry is given as “no binding (condition: with 9-cis-retinoic acid)”.
